Measurements reported in PubChem BioAssay AID1053209 (Peter MacCallum Cancer Centre, 2014)

Aim: 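Gene losses that combine with doxorubicin to kill mouse bone cancer cells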 (follow-up of hits)
Cells: mouse primary osteosarcoma cells
Reagents: single siRNA against mouse genes, 25 nM (text also states 40 nM)
Duration: about 120 h (48 h before drug, then 72 h with drug)
Treatment: doxorubicin 100 nM (about IC30-40), added 48 h after transfection, for 72 h
Measured: 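Viability measured by ATP luminescence with and without doxorubicin, each replicate scaled to non-targeting siRNA NT1, averaged over two replicates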
Reading the numbers: viability with doxorubicin, vs NT1: higher = more viable cells under doxorubicin; viability without drug, vs NT1: higher = more viable cells without drug
Call rule: 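Counted as active (class LC dox) if viability falls to 0.7 of NT1 or below under doxorubicin but stays within 0.7 to 1.1 without drug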
The whole screen tested about 1,580 reagents; below is an unselected part. 207 of them (13%) count as active. 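Rows are single siRNAs; four siRNAs per gene were tested, a gene counting as confirmed only when at least two agree.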 Entries without a mark were called inactive. The numbers tell different reagents against one gene apart. Not all columns of the deposit are shown.

Polr1a (GeneID 20019) #1: combined effect class = low viability only with doxorubicin; normal without drug (active); viability with doxorubicin, vs NT1 = 0.44; viability without drug, vs NT1 = 0.76
Polr1a (GeneID 20019) #2: combined effect class = normal viability with and without drug; viability with doxorubicin, vs NT1 = 0.83; viability without drug, vs NT1 = 0.86
Polr1a (GeneID 20019) #3: combined effect class = normal viability with and without drug; viability with doxorubicin, vs NT1 = 0.92; viability without drug, vs NT1 = 0.9
Polr1a (GeneID 20019) #4: combined effect class = normal viability with and without drug; viability with doxorubicin, vs NT1 = 0.72; viability without drug, vs NT1 = 0.94
Tmem220 (GeneID 338369) #1: combined effect class = high viability only with doxorubicin; viability with doxorubicin, vs NT1 = 1.21; viability without drug, vs NT1 = 1.05
Tmem220 (GeneID 338369) #2: combined effect class = normal viability with and without drug; viability with doxorubicin, vs NT1 = 1.06; viability without drug, vs NT1 = 0.98
Tmem220 (GeneID 338369) #3: combined effect class = high viability only without drug; viability with doxorubicin, vs NT1 = 1.04; viability without drug, vs NT1 = 1.19
Tmem220 (GeneID 338369) #4: combined effect class = normal viability with and without drug; viability with doxorubicin, vs NT1 = 1.06; viability without drug, vs NT1 = 0.96
Rpl10 (GeneID 110954) #1: combined effect class = normal viability with and without drug; viability with doxorubicin, vs NT1 = 0.77; viability without drug, vs NT1 = 0.9
Rpl10 (GeneID 110954) #2: combined effect class = low viability with and without drug; viability with doxorubicin, vs NT1 = 0.39; viability without drug, vs NT1 = 0.64
Rpl10 (GeneID 110954) #3: combined effect class = low viability with and without drug; viability with doxorubicin, vs NT1 = 0.53; viability without drug, vs NT1 = 0.64
Rpl10 (GeneID 110954) #4: combined effect class = low viability only with doxorubicin; normal without drug (active); viability with doxorubicin, vs NT1 = 0.4; viability without drug, vs NT1 = 0.72
